Out of some 78,000 compounds screened, about 1,800 (2.3%) were called active. The shares of active, inactive and inconclusive entries below differ from those in the screen. Rule as the data show it: active = inhibition above about 30%; inconclusive = mostly about 10% to 28%; inactive = weaker than that.
biological target: Interleukin-1 receptor-like 1 (Homo sapiens) (UniProt Q01638); test: blocks human ST2 binding to IL-33, primary screen, biochemical, AlphaLISA (AID 1259354); settings: AlphaLISA ST2-Fc/biotin-IL-33 interaction, 1 h; at 17 µM, stronger effect = higher value

By UniProt entry, the sequences of proteins in these tests, tags left out. Where a name states a change or a piece, a line headed by the entry shows the natural chain unless it says otherwise.
UniProt Q01638: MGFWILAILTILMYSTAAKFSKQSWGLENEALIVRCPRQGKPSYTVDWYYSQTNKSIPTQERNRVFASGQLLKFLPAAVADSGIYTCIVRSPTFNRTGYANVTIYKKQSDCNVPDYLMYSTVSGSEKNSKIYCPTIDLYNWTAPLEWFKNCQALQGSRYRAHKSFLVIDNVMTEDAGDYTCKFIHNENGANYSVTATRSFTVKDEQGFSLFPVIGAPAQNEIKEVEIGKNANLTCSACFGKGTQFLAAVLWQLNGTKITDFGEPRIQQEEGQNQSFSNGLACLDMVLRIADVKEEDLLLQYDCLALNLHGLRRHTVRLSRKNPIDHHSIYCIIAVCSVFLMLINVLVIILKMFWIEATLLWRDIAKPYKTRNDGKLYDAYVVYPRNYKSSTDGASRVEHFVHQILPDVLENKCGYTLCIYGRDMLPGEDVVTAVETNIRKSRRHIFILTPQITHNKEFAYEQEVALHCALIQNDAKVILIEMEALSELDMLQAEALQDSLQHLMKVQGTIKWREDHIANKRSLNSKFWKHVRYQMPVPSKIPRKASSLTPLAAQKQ

Q: For CN1CCC(N2CCN(Cc3cccc(OC4CCCC4)c3)CC2CCO)CC1 (centres undefined), which inhibition is on record?
A: inactive

Q: With C=C(C)COc1ccc(C(=O)NCC2CCN(C)C2)cc1 (centres undefined) as the molecule, how does the inhibition read?
A: inconclusive: 14%

Q: For O=C(NCCCN1CCN(C2CCCCC2)CC1)C1CCCN1c1nnc(N2CCCC2=O)s1 (centres undefined), which inhibition is on record?
A: inactive

Q: For Cn1cc(NC(=O)CN2CCCC(C(=O)c3ccc4ccccc4c3)C2)cn1 (centres undefined), which inhibition is on record?
A: inactive

Q: How did the inhibition turn out when Cc1cc(C(=O)N(CC2CCN(C3Cc4ccccc4C3)CC2)CC2CCCO2)c(C)o1 (centres undefined) was run?
A: inactive

Q: Cc1[nH]nc2c1C(c1cccc(Br)c1)CC(=O)N2 (centres undefined) was tested. Which inhibition did it give?
A: inconclusive: 12%

Q: How did the inhibition turn out when O=C(NC1CCCC1)c1ccc2c(c1)ncn2C1CCCCCC1 was run?
A: inactive

Q: How did the inhibition turn out when c1cncc(CN(Cc2ccnc3ccccc23)CC2CCN(C3CCCC3)CC2)c1 was run?
A: inactive

Q: COc1ccccc1C1C(C(=O)Nc2nc3ccccc3s2)=C(C)NC2=C1C(=O)CCC2 (centres undefined) was tested. Which inhibition did it give?
A: inactive

Q: With Clc1ccc(C2=NN3C(C2)c2ccccc2OC3c2ccco2)cc1 (centres undefined) as the molecule, how does the inhibition read?
A: inconclusive: 12%

Q: For CCn1cnnc1CCNC(=O)c1occc1C, which inhibition is on record?
A: inactive

Q: For CCn1c(C2CCCN(C(=O)c3cccc(Cn4cccn4)c3)C2)nn(C)c1=O (centres undefined), which inhibition is on record?
A: inconclusive: 12%

Q: For COC(=O)C1=C(NC(=O)c2ccccc2Br)CCS1, which inhibition is on record?
A: active: 31%

Q: With COc1cccc(-c2nccn2-c2cccc(C(C)=O)c2)c1OC as the molecule, how does the inhibition read?
A: inactive

Q: How did the inhibition turn out when Cc1ccc(-c2noc(CCC(=O)N(C)c3cc(Cl)ccc3C)n2)cc1 was run?
A: inactive

Q: Which inhibition does the source give for Cc1nnn(C23C[C@@H]4C[C@@H](CC(NC(=O)[C@H](N)CC(C)C)(C4)C2)C3)n1 here?
A: inactive

Q: Which inhibition does the source give for Cc1ccccc1-c1cc(O)c2c(c1)CN(C(=O)CC(F)(F)F)CCO2 here?
A: inactive

Q: With CSc1ccc(-c2ncnn2-c2ccc(Cl)cc2)cc1 as the molecule, how does the inhibition read?
A: inconclusive: 12%

Q: How did the inhibition turn out when Cc1c(Cl)cccc1NS(=O)(=O)c1ccc(Cl)cc1 was run?
A: inconclusive: 11%

Q: For O=C1CC(C(=O)Nc2ccccc2Cl)N=C(Nc2nc3ccccc3s2)N1 (centres undefined), which inhibition is on record?
A: inactive

Q: How did the inhibition turn out when COc1ccc(OC)c(NC(=O)c2cccn2-c2nnc(N3CCCCC3)s2)c1 was run?
A: inconclusive: 15%

Q: CC(=O)NC[C@H]1O[C@@H](CC(=O)Nc2ccccc2)[C@H](O)[C@@H]1O was tested. Which inhibition did it give?
A: inconclusive: 12%

Q: With Cc1nnc(SCC(=O)Nc2nnc(C(F)(F)F)s2)s1 as the molecule, how does the inhibition read?
A: inactive

Q: For COc1ccc(C(=O)C2CCCN(CC#Cc3ccccc3)C2)cc1OC (centres undefined), which inhibition is on record?
A: inconclusive: 12%

Q: With CN(Cc1cn[nH]c1-c1ccc(F)cc1)C(=O)c1cnn2c1CCCC2 as the molecule, how does the inhibition read?
A: inactive

Q: CCCN(CCC)C(=O)Cn1c(=O)n(CCC(=O)NCc2ccccc2)c(=O)c2sccc21 was tested. Which inhibition did it give?
A: inactive

Q: How did the inhibition turn out when CCn1cnc2sc(C(=O)Oc3ccc(C#N)cc3)c(C)c2c1=O was run?
A: inactive

Q: How did the inhibition turn out when O=C1CC(/C=C/c2ccc(Br)cc2)=Nc2ccccc2N1 was run?
A: inconclusive: 13%

Q: With CC(NC(=O)c1ccc(N(C)C)cc1)C(c1cccs1)N1CCN(C)CC1 (centres undefined) as the molecule, how does the inhibition read?
A: inconclusive: 16%

Q: CCc1ccc(N2C(=O)c3ccccc3NC2c2ccc3c(c2)OCO3)cc1 (centres undefined) was tested. Which inhibition did it give?
A: inactive

Q: For Cc1nc2sccn2c1C(=O)NCCc1nnc2n1CCNCC2, which inhibition is on record?
A: inconclusive: 12%

Q: With Cc1cccnc1N1CCN(Cc2cccc(CN3CCOCC3)c2)CC1 as the molecule, how does the inhibition read?
A: inconclusive: 15%

Q: For CCn1c(CN2CCc3nc(C)n(C)c(=O)c3CC2)nc2ccccc21, which inhibition is on record?
A: inactive

Q: Which inhibition does the source give for Cc1ccc(Cl)cc1NC1=CC(=NS(=O)(=O)c2cccs2)c2ccccc2C1=O here?
A: active: 56%

Q: COc1ncccc1C(=O)NC1CC(=O)N(C2Cc3ccccc3C2)C1 (centres undefined) was tested. Which inhibition did it give?
A: inconclusive: 11%

Q: Cc1ccc(CSC2=NCCN2C(=O)c2ccc(C)cc2)cc1 was tested. Which inhibition did it give?
A: inactive

Q: Cc1ccc(-c2nnc(-c3nc(NCCN4CCCC4)c4ccccc4n3)o2)cc1 was tested. Which inhibition did it give?
A: inactive

Q: Which inhibition does the source give for O=C1NC[C@@H](CCC(=O)N2CCN(c3ccccc3)CC2)N2C[C@@H](NCc3ccccc3)C[C@@H]12 here?
A: inconclusive: 25%

Q: Which inhibition does the source give for O=C(c1cncc(-c2ccc3c(c2)OCO3)n1)N1CCOCC1 here?
A: inconclusive: 12%

Q: For O=c1cc(-c2cccc([N+](=O)[O-])c2)c2ccc(OCc3ccc(F)cc3)cc2o1, which inhibition is on record?
A: inconclusive: 27%

Q: With O=C(Nc1ccccc1)Oc1c(Cl)cc(Cl)cc1Br as the molecule, how does the inhibition read?
A: inactive

Q: Fc1ccccc1-c1cnnc(NCC(c2ccncc2)N2CCOCC2)n1 (centres undefined) was tested. Which inhibition did it give?
A: inconclusive: 12%

Q: With C#CCOc1nc2c(c(=O)n(Cc3ccc(Cl)cc3)c(=O)n2C)n1C as the molecule, how does the inhibition read?
A: inactive

Q: Cc1[nH]nc(SCC(=O)Nc2ccc(C#N)cc2)c1[N+](=O)[O-] was tested. Which inhibition did it give?
A: inconclusive: 11%

Q: Which inhibition does the source give for Cc1cc(Cl)ccc1OCC(=O)Nc1sc2c(c1C(N)=O)CCCC2 here?
A: inconclusive: 11%

Q: How did the inhibition turn out when COc1cc(OC)c2c(O)c3c(c(-c4c5c(c(O)c6c(OC)cc(OC)cc46)CO[C@@H](C)[C@H]5O)c2c1)[C@H](O)[C@H](C)OC3 was run?
A: inconclusive: 11%

Q: For Cc1ccc(C)c(N2C(=O)CC(N3CCN(Cc4ccc5c(c4)OCO5)CC3)C2=O)c1 (centres undefined), which inhibition is on record?
A: inconclusive: 20%

Q: How did the inhibition turn out when O=C1NC(=O)N(c2ccccc2F)C(=O)/C1=C/c1cn(CC(=O)N2CCCCC2)c2ccccc12 was run?
A: inconclusive: 13%

Q: How did the inhibition turn out when COc1ccc(-c2oc(N=CN3CCCCCC3)c(C#N)c2-c2ccc(OC)cc2)cc1 was run?
A: inconclusive: 17%

Q: CCc1ccc(C2=C(C)C(=O)N(CC(=O)NCc3ccc(OC)cc3OC)S2(=O)=O)cc1 was tested. Which inhibition did it give?
A: inconclusive: 10%

Q: With Cc1nc2ccccc2c2oc(C(=O)N3CCCC3)cc12 as the molecule, how does the inhibition read?
A: inconclusive: 12%

Q: CC1=CC[C@@H]2CN(C(=O)c3ccc(-c4ncn[nH]4)cc3)C[C@@H]2C1 was tested. Which inhibition did it give?
A: inconclusive: 16%

Q: How did the inhibition turn out when O=C1Nc2ccccc2C(O)(C(=O)NCCC2=CCCCC2)N1c1ccccc1 (centres undefined) was run?
A: inconclusive: 10%

Q: For Cc1cccc(NC(c2ccc(O)cc2)c2ccc3ccc(C)nc3c2O)n1 (centres undefined), which inhibition is on record?
A: inconclusive: 17%

Q: Which inhibition does the source give for CN1CCCn2nc(C(=O)NCC3(COc4ccccc4)CC3)cc2C1 here?
A: inconclusive: 12%

Q: With O=C(NC[C@H]1O[C@@H](CC(=O)N2CCCC2)[C@H](O)[C@@H]1O)c1ccccc1 as the molecule, how does the inhibition read?
A: inactive

Q: For CC[C@H]1CN(C(=O)Nc2cccc(C(F)(F)F)c2)CC[C@H]1CC(=O)N(C)CC#N, which inhibition is on record?
A: inconclusive: 17%

Q: With O=S(=O)(N1CCCCCC1)N1CC[C@@H](c2ccc3c(c2)OCO3)[C@H](O)C1 as the molecule, how does the inhibition read?
A: inconclusive: 14%

Q: Which inhibition does the source give for CCOC(=O)C1C(=O)C=C(c2cccc(OC)c2)CC1c1cc(OC)ccc1OC (centres undefined) here?
A: inconclusive: 11%

From PubChem BioAssay AID1259354 (Paczesny and Yang Labs, IUPUI and University of Michigan, 2018)
